Results on one sequence are retold here after paper PMC12455589, “Abundant bacterial nucleoid-associated protein H-NS limits plasmid transfer through mechanical modification of DNA”.

Residue numbers refer to the chain shown, from its start. Construct, isoform or probe ends are uncertain for at least one entry. For some assays here: A weaker result is weaker than the reference pair of the same experiment. Tags and fusion partners may be left off the protein sequences shown. For some assays here: At least one verdict rests on a figure or table, not on a statement of the authors.

The target of one data set is T1, H-NS (UniProt P0ACF8).
T1 sequence (looked up, limits assumed): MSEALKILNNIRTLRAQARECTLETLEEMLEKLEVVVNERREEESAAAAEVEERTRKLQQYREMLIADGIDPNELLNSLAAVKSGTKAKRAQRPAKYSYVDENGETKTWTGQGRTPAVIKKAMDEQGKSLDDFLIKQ
Put plainly: EMSA. The following applies: 10 mM Mg2+; EMSA: 10 mM Tris-HCl pH 7.9, 125 mM KCl, 10 mM MgCl2, 0.1 mM DTT, 2.5% glycerol, 30 min, room temperature; recombinant protein; protein details: His6 (N-terminal); probe letters rebuilt from the primers and the genome.

The next data set deals with T2, H-NS G113C (UniProt P0ACF8).
T2 sequence (looked up, limits assumed): T1 sequence (looked up, limits assumed) with G113C
Put plainly: EMSA. The conditions noted are these: 10 mM Mg2+; EMSA: 10 mM Tris-HCl pH 7.9, 125 mM KCl, 10 mM MgCl2, 0.1 mM DTT, 2.5% glycerol, 30 min, room temperature; recombinant protein; protein details: His6 (N-terminal); probe letters rebuilt from the primers and the genome.

Turning to “TTGTTCTCCTTCATATGCTCCGACATTTCTCCTGCATTTCTATACGTCGGCACACTTCCGTTATCGGTAAAAACAAAGAAAAAATACGGCGTAATTAATTCAATAATCACATTCACTGCAAAAATATATTCATTGGTTTAATACAATTAACCTATACATATATTAAGATGTGTTGAATTGTTTAAAGACAATAATGCATGCATTTCAAATCTGCAAGTTATTCGTTTTATTATTAAAGAAACTTTTAGTTATAATAATTACCATGAATTTTATTACATAAAATATTCATACTGTGAATATAAAATCTCATACCGGGAAATTAAAAGAAGATGTACATTGTGCACCTTCCCTACTTAAGTAGGGATAAACCGTTATTGGTCTTATTATCGTCATTGATAACAATCATTCCCGAA (double strand) [motif probe (intact HBS)]”, the binding result is listed as “binds” in the data set with H-NS and “binds more weakly” with H-NS G113C.
